From article PMC4561369
These are yes or no findings as the source states them, for the method shown. In cells and extracts the contact can be indirect. Some entries that bind do so weakly or less than the wild type.

The chains behind the UniProt entries cited, without tags or fusion partners.
UniProt Q91YN9: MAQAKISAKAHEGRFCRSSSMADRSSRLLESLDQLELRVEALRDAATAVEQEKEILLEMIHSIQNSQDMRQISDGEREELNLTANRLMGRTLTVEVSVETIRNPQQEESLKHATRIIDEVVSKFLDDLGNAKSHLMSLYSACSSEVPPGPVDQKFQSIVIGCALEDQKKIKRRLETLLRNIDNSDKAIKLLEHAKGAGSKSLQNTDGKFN

Experiments:
[1] = molecular target: mutant p53 (mutp53) R172H protein of Trp53^R172H/R172H knock-in mice (mouse (endogenous in tissues of Trp53^R172H/R172H mice)) (UniProt P02340); assay: co-IP; lysates of normal thymus, spleen and kidney of Trp53^R172H/R172H mice in NP-40 buffer; IP with anti-p53 (FL393), Western blot
[2] = molecular target: mutant p53 (mutp53) R172H protein of Trp53^R172H/R172H knock-in mice (mouse (endogenous in tissues of Trp53^R172H/R172H mice)) (UniProt P02340); assay: co-IP; lysates of thymic lymphomas of Trp53^R172H/R172H mice (p53^−/− lymphomas as control) in NP-40 buffer; IP with anti-p53 (FL393), Western blot

Substance: BAG2 (mouse, endogenous) (from UniProt Q91YN9 1-210)
- binding [1]: binds weakly
- binding [2]: binds
